Measurements taken from PubChem BioAssay AID720504 (National Center for Advancing Translational Sciences (NCATS), 2013).
Hit rate of the full screen: of about 360,000 compounds, about 10,000 (2.8%) were called active. This list was built around the results that the source calls inconclusive (neither active nor inactive); the mix of calls is not that of the screen. The call rests on the fitted dose curve; in most records, active means well fitted inhibition curve with a large enough effect; inconclusive means small, poorly fitted or top-dose-only effect; inactive means flat fitted curve, though single readings scatter. A potency beside an inconclusive call is a rough fit, not a confirmed value. More than one record can exist for a structure, and the calls need not agree.

Sequences of proteins named here, by UniProt entry; tags and fusion partners are left off.
UniProt P53350, whole entry, looked up: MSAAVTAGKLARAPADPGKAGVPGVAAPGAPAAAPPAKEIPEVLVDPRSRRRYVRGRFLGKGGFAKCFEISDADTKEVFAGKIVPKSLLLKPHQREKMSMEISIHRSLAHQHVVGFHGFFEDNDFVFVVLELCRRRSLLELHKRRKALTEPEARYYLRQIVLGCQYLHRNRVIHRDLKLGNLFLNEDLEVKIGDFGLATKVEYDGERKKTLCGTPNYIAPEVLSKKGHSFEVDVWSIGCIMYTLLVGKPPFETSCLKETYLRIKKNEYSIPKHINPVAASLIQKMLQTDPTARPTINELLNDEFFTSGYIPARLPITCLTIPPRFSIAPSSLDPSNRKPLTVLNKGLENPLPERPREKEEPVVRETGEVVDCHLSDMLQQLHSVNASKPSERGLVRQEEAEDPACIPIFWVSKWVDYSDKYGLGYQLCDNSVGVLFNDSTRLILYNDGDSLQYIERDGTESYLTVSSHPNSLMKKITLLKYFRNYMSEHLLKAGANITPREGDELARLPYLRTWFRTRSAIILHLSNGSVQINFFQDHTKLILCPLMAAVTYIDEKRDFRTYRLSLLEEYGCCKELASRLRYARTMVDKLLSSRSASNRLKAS

molecular target: Serine/threonine-protein kinase PLK1 (Homo sapiens) (UniProt P53350); experiment: qHTS for Inhibitors of PLK1-PDB (polo-like kinase 1 - polo-box domain): Primary Screen; settings: Plk1 PBD binding of FITC phosphopeptide, fluorescence polarization; further: nearly all actives have a fitted effect of over 65% in size; on max response, negative = inhibition: series mostly up to about 57 µM
On the % scale 0 is the no-effect control and ±100 the full control effect; potency means the concentration at half of the fitted maximal effect.

Question: How did the max response, negative = inhibition turn out when `CC(=O)c1ccccn1` was run?
Answer: inactive: -2.92%

Question: `COc1ccc(OC)c(S(=O)(=O)N/N=C\c2cn(CC(N)=O)c3ccccc23)c1` was tested. Which max response, negative = inhibition did it give?
Answer: inactive: -2.5%

Question: For `CC(=O)/C=C/c1ccc2ccccc2n1`, which Potency is on record?
Answer: inconclusive: 21.2 µM [inhibitor, partial curve]

Question: How did the max response, negative = inhibition turn out when `Cc1ccc(C(=O)N(CC(=O)NC2CCCC2)Cc2cccs2)s1` was run?
Answer: inactive: -2.22%

Question: With `CC(=O)c1ccc(NC(=S)NCc2ccc(Cl)cc2Cl)cc1` as the compound, how does the max response, negative = inhibition read?
Answer: inactive: -2.35%

Question: For `NC(=O)CSc1nnc(NC(=O)C2CC(=O)N(c3ccc(F)cc3)C2)s1` (configuration not stated), which max response, negative = inhibition is on record?
Answer: inconclusive: -32.1% [inhibitor]

Question: Which Potency does the source give for `O=C1/C(=C/c2ccccc2O)SC(=S)N1Cc1cccnc1` here?
Answer: inconclusive: 3.77 µM [inhibitor, partial curve]

Question: `CC(=O)N1CCc2cc(S(=O)(=O)CCC(=O)N(C)c3cc(C)ccc3C)ccc21` was tested. Which Potency did it give?
Answer: inconclusive: 29.9 µM [inhibitor, partial curve]

Question: With `COc1ccc(C2CC(c3ccco3)n3ncnc3N2)cc1` (configuration not stated) as the compound, how does the Potency read?
Answer: inconclusive: 37.7 µM [inhibitor, single point]

Question: Which Potency does the source give for `N#CC1=C(N)NC(SCc2ccccc2)=C(C#N)C12CCCC2` here?
Answer: inconclusive: 33.6 µM [inhibitor, single point]

Question: With `Cc1cc(C)c[n+](CC(=O)c2cc3ccccc3oc2=O)c1` as the compound, how does the Potency read?
Answer: inconclusive: 31.6 µM [inhibitor, partial curve]

Question: `Cn1c(Cn2c(=O)sc3ccccc32)nnc1SCC(=O)NCc1ccco1` was tested. Which max response, negative = inhibition did it give?
Answer: inconclusive: -31.1% [inhibitor]

Question: With `O=C(NCc1nnc(SCC(=O)N2CCCC2)o1)c1ccccc1` as the compound, how does the max response, negative = inhibition read?
Answer: inactive: -5.25%

Question: `O=c1ccc2c(-c3ccccc3)c3ccc(O)cc3oc-2c1` was tested. Which Potency did it give?
Answer: inconclusive: 0.0053 µM [inhibitor, full curve, poor fit]

Question: How did the max response, negative = inhibition turn out when `Cc1cc(C)c(S(C)(=O)=O)c(Oc2ccc(F)cc2)n1` was run?
Answer: inactive: -9.32%

Question: For `Cc1cccc2cc(/C=C3\N=C(c4ccccc4)OC3=O)c(N3CCOCC3)nc12`, which Potency is on record?
Answer: inconclusive: 37.7 µM [inhibitor, single point]

Question: How did the Potency turn out when `O=C1NN(c2ccccc2)C(=O)/C1=C/c1ccc(Sc2cccc3ccccc23)o1` was run?
Answer: active: 11.9 µM

Question: How did the Potency turn out when `NS(=O)(=O)c1ccc(NC(=O)c2cccc(N3C(=O)c4ccccc4C3=O)c2)cc1` was run?
Answer: inconclusive: 11.9 µM [inhibitor, partial curve]

Question: `O=C1C(Cl)=C(NCC2CCCO2)C(=O)N1C1CCCCC1` (configuration not stated) was tested. Which Potency did it give?
Answer: inconclusive: 29.9 µM [inhibitor, partial curve]

Question: `Cc1ccc(-n2nnnc2C(Cl)c2nnnn2-c2ccc(C)cc2)cc1` was tested. Which Potency did it give?
Answer: inconclusive: 21.2 µM [inhibitor, partial curve]

Question: With `COc1cc(/C=N/NC(=O)c2cccc(N3CCCC3=O)c2)ccc1O` as the compound, how does the max response, negative = inhibition read?
Answer: inactive: 5.18%

Question: Which max response, negative = inhibition does the source give for `CC1=NN(c2ccc(C)c(C)c2)C(=O)/C1=C\C=C\c1ccc([N+](=O)[O-])o1` here?
Answer: inconclusive: -36.9% [inhibitor]

Question: Which Potency does the source give for `COc1ccc(OC)c(NC(=O)c2nc(S(=O)(=O)Cc3ccccc3)ncc2Cl)c1` here?
Answer: inconclusive: 2.67 µM [inhibitor, full curve]

Question: For `O=C(c1ccc2[nH]ccc2c1)N1CCCC(Nc2ccccc2)C1` (configuration not stated), which Potency is on record?
Answer: inconclusive: 0.752 µM [inhibitor, full curve]

Question: How did the max response, negative = inhibition turn out when `COc1ccc(NS(=O)(=O)c2cc(N/C(=N\S(=O)(=O)c3ccccc3)c3ccc(F)cc3)ccc2Cl)cc1` was run?
Answer: inactive: 3.44%

Question: For `Nc1nc(-c2ccccc2Cl)cs1`, which Potency is on record?
Answer: active: 18.9 µM

Question: `O=C(CNS(=O)(=O)c1cccc(Br)c1)NCCCc1ccccc1` was tested. Which Potency did it give?
Answer: inconclusive: 15 µM [inhibitor, partial curve]

Question: For `O=C(CSc1nccc(=O)[nH]1)Nc1ccc(S(=O)(=O)N2CCOCC2)cc1`, which Potency is on record?
Answer: inconclusive: 26.7 µM [inhibitor, partial curve]

Question: With `Cc1ccc(S(=O)(=O)N(C)CC(=O)NNC(=O)CCNS(=O)(=O)c2cccc(C)c2)cc1` as the compound, how does the max response, negative = inhibition read?
Answer: inconclusive: -35.5% [inhibitor]

Question: For `O=[N+]([O-])c1cccc(/C=N/Nc2nccnc2Cl)c1`, which max response, negative = inhibition is on record?
Answer: inactive: -2.89%

Question: `COc1cccc(-c2nnc(SCC(=O)OC(C)C)n2Cc2ccco2)c1` was tested. Which Potency did it give?
Answer: active: 26.7 µM

Question: With `CN(C)c1ccc(/C=C(\NC(=O)c2ccccc2)C(=O)NCCCN2CCOCC2)cc1` as the compound, how does the max response, negative = inhibition read?
Answer: inactive: -0.179%

Question: `Cc1ccc(NC(=O)c2cc(-c3cccs3)nc3ccccc23)nc1` was tested. Which max response, negative = inhibition did it give?
Answer: inactive: -4.78%

Question: Which Potency does the source give for `CCN1CCc2c(sc(NC(=S)NC(=O)c3ccco3)c2C(N)=O)C1` here?
Answer: active: 23.8 µM

Question: Which Potency does the source give for `Cc1ccc(N/N=C(\C#N)C(N)=S)c(C)c1` here?
Answer: active: 18.9 µM

Question: With `COc1ccc(C2CC(=O)N3CN(c4ccc(C)c(Cl)c4)CSC3=C2C#N)cc1OC` (configuration not stated) as the compound, how does the Potency read?
Answer: inconclusive: 23.8 µM [inhibitor, single point]

Question: Which max response, negative = inhibition does the source give for `Cc1cn2c(N)c(C=C3C=C(Cl)C(=O)C(Cl)=C3)c(=O)nc2s1` here?
Answer: inactive: 15.1%

Question: Which Potency does the source give for `COc1ccccc1CNC(=O)C(C)Sc1ccsc1[N+](=O)[O-]` (configuration not stated) here?
Answer: inconclusive: 16.8 µM [inhibitor, partial curve]

Question: Which max response, negative = inhibition does the source give for `COc1ccc(C2NC(=O)c3ccccc3N2)cc1OC` (configuration not stated) here?
Answer: inactive: -6.84%

Question: Which max response, negative = inhibition does the source give for `Nc1c(C(=O)Nc2ccccc2Cl)nnn1-c1ccc2c(c1)OCCO2` here?
Answer: inactive: 3.21%

Question: `Cc1nc2c(C(=O)NCc3ccccc3Cl)c[nH]n2c(=O)c1Cl` was tested. Which Potency did it give?
Answer: active: 29.9 µM

Question: `CC(=O)NC1C(=O)N(Cc2ccccc2)c2ccc(Br)cc21` (configuration not stated) was tested. Which Potency did it give?
Answer: active: 26.7 µM

Question: How did the Potency turn out when `CC(C)c1nnc(NC(=O)CSc2ccccc2)s1` was run?
Answer: inconclusive: 21.2 µM [inhibitor, single point]

Question: For `CCCCCCCC(=O)N/N=C(\C)c1cccnc1`, which Potency is on record?
Answer: inconclusive: 23.8 µM [inhibitor, partial curve]

Question: With `Cc1cccnc1NC(=O)c1ccc2nc(N)sc2c1` as the compound, how does the max response, negative = inhibition read?
Answer: inconclusive: -34.7% [inhibitor]

Question: `CC(C)(C)NC(=O)C(c1ccccc1)n1c(=O)c(-c2ccco2)nc2ccccc21` (configuration not stated) was tested. Which Potency did it give?
Answer: inconclusive: 23.8 µM [inhibitor, partial curve]

Question: How did the max response, negative = inhibition turn out when `CCOC(=O)c1[nH]c2ccccc2c1NC(=S)Nc1cc(C)ccc1C` was run?
Answer: inconclusive: -30.9% [inhibitor]

Question: With `CCSc1nc(N)c(C#N)c(-c2ccco2)c1C#N` as the compound, how does the max response, negative = inhibition read?
Answer: inconclusive: -30.5% [inhibitor]

Question: With `O=C(O)C1Sc2[nH]c(=O)sc2C2c3ccc(O)cc3OC(=O)C12` (configuration not stated) as the compound, how does the Potency read?
Answer: active: 29.9 µM

Question: For `Cc1cccc(NC(=O)COc2ccc(/C=C\c3[nH]c(=O)[nH]c(=O)c3[N+](=O)[O-])cc2)c1`, which Potency is on record?
Answer: inconclusive: 23.8 µM [inhibitor, single point]

Question: `C/C=C/Cn1c(SCc2ccc(Cl)cc2)nc2c1c(=O)[nH]c(=O)n2C` was tested. Which Potency did it give?
Answer: inconclusive: 23.8 µM [inhibitor, partial curve]

Question: With `O=C(CCl)Nc1cccc2ncccc12` as the compound, how does the max response, negative = inhibition read?
Answer: inactive: -1.07%

Question: `CCCCCNC(=O)C(c1ccncc1)n1c(=O)c(-c2ccco2)nc2ccccc21` (configuration not stated) was tested. Which Potency did it give?
Answer: inconclusive: 26.7 µM [inhibitor, partial curve]

Question: Which Potency does the source give for `CCCOc1ccc(Cc2c(COCC)[nH]c(=S)[nH]c2=O)cc1` here?
Answer: inconclusive: 21.2 µM [inhibitor, single point]

Question: `CCN(C(=O)CSc1nc2ccccc2n1CCc1ccccc1)C1CCS(=O)(=O)C1` (configuration not stated) was tested. Which max response, negative = inhibition did it give?
Answer: inconclusive: -31.9% [inhibitor]

Question: With `O=C(Oc1ccc(N(C(=O)c2ccncc2)S(=O)(=O)c2ccc(F)cc2)cc1)c1ccncc1` as the compound, how does the Potency read?
Answer: inconclusive: 18.9 µM [inhibitor, partial curve]

Question: For `S=c1[nH]nc(NCCc2ccccc2)s1`, which Potency is on record?
Answer: inconclusive: 21.2 µM [inhibitor, partial curve]

Question: For `COc1ccc(CN2CCN(C(=O)c3ccc(CNS(=O)(=O)c4ccc(C)cc4)cc3)CC2)c(OC)c1OC`, which max response, negative = inhibition is on record?
Answer: inactive: -1.66%

Question: `CCN(CC)C(=O)CSc1nc(C)cc(C)c1C#N` was tested. Which Potency did it give?
Answer: inconclusive: 4.23 µM [inhibitor, single point]

Question: With `COc1ccc(OC)c(/C=C2\SC(N3CCCC(C)C3)=NC2=O)c1` (configuration not stated) as the compound, how does the Potency read?
Answer: inconclusive: 29.9 µM [inhibitor, partial curve]

Question: `Cc1ccc(C(=O)NCC2CCCO2)cc1N1CCCC1=O` (configuration not stated) was tested. Which Potency did it give?
Answer: active: 26.7 µM

Question: For `Cc1cc(Nc2ccccc2F)n2nc(C)nc2n1`, which Potency is on record?
Answer: inconclusive: 26.7 µM [inhibitor, partial curve]

Question: `O=C(O)COn1c(-c2ccccc2)nc2ccc([N+](=O)[O-])cc21` was tested. Which max response, negative = inhibition did it give?
Answer: inconclusive: -31.7% [inhibitor]

Question: With `CCOC(=O)N1CCC(N(CCN(C)C)C(=S)Nc2cc(Cl)ccc2C)CC1` as the compound, how does the Potency read?
Answer: inconclusive: 23.8 µM [inhibitor, partial curve]

Question: Which Potency does the source give for `CCOC(=O)c1c(NC(=O)CCl)sc(CN(C)C)c1-c1ccccc1` here?
Answer: inconclusive: 37.7 µM [inhibitor, single point]

Question: With `O=C(/C=C/c1cccs1)NC1CCS(=O)(=O)C1` (configuration not stated) as the compound, how does the Potency read?
Answer: active: 26.7 µM

Question: How did the max response, negative = inhibition turn out when `NS(=O)(=O)c1ccc(NC(=O)COC(=O)C2CCCCC2)cc1` was run?
Answer: inactive: -2.75%

Question: For `Cc1ccc(-c2nn(C)c(=O)c3ccccc23)cc1CNC(=O)CSc1nc2ccccc2o1`, which Potency is on record?
Answer: active: 26.7 µM

Question: How did the Potency turn out when `COc1ccc(C2NC(=O)NC3=C2CCc2ccccc23)cc1` (configuration not stated) was run?
Answer: inconclusive: 26.7 µM [inhibitor, single point]

Question: For `COc1ccc(CC(=O)N2CCC3(CC2)NCCc2[nH]cnc23)cc1`, which Potency is on record?
Answer: inconclusive: 21.2 µM [inhibitor, single point]

Question: `Cn1c(-c2ccco2)nc2cc3ccccc3cc21` was tested. Which Potency did it give?
Answer: inconclusive: 23.8 µM [inhibitor, single point]

Question: Which Potency does the source give for `CC(=O)NS(=O)(=O)c1ccc(NC(=O)c2cc(-c3ccc(C)c(C)c3)nc3ccccc23)cc1` here?
Answer: inconclusive: 26.7 µM [inhibitor, single point]
